Results are given in words; binding and its absence hold for the method and conditions named. A result given as binding can be weak or reduced; the word gives no strength. Tags and fused reporters may be left off the sequences shown.
Biological target: T1, GST-FAM104B isoform 3 (human) (UniProt Q5XKR9)
T1 sequence: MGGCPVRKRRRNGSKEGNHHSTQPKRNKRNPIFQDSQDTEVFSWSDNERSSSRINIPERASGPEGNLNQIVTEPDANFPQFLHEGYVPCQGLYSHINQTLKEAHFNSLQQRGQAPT
Assay: pull-down

For “p97 N domain (human) (domain or fragment)”, the binding was “binds”.

From publication doi:10.1101/2023.07.25.550451
